Literature values, collected in article PMC4546427, “Stereoselective Regulation of P-gp Activity by Clausenamide Enantiomers in Caco-2, KB/KBv and Brain Microvessel Endothelial Cells” (PLoS ONE, 2015).

System: P-gp
Settings: Caco-2 cells pre-treated with 100 μmol/L; cited from earlier work

## O=C(O)COCCN1CCN([C@@H](c2ccccc2)c2ccc(Cl)cc2)CC1 [S-cetirizine]
  Efflux of Rh123 and doxorubicin: reduced

## O=C(O)COCCN1CCN([C@H](c2ccccc2)c2ccc(Cl)cc2)CC1 [R-cetirizine]
  Efflux of Rh123 and doxorubicin: significantly enhanced
